No constants are given. Whether binding was seen depends on the method and setting. Where a sequence is shown, tags or fusion partners need not be part of it.

This assay addresses zfRor2-ΔCRD-mCherry (zebrafish). The assay can be described thus: fluorescence cross-correlation spectroscopy.

B1: zfWnt5b-GFP (ligand, UniProt Q92050 22-363)
chain: QLLVVANSWWSLAMNPIQRPEMYIIGAQPLCSQLTGLSQGQRKLCQLYQDHMVYIGEGAKTGIKECQYQFRQRRWNCSTVDNTSVFGRVMHIGSRETAFTYAVSAAGVVNAVSRACREGELSTCGCSRAARPRDLPRDWLWGGCGDNVNYGYRFAREFVDAREREKNYPRGSVEHARTLMNLQNNEAGRMAVYNLANVACKCHGVSGSCSLKTCWLQLADFRRVGEFLKEKYDSAAAMRINRRGKLELVNNRFNPPTGEDLVYIDPSPDYCLRNETTGSLGTQGRLCNKTSEGMDGCELMCCGRGYDQFKTYKHERCHCKFHWCCYVKCKRCTSLVDQFVCK
B1: the binding entry is “no binding (tested: >6678nM)”.

These data come from doi:10.1101/2022.04.07.487468.
